PubChem BioAssay AID504444 (National Center for Advancing Translational Sciences (NCATS), 2011)
About 7,500 (2.1%) of roughly 360,000 compounds were called active. This list was built around the results that the source calls inconclusive (neither active nor inactive); the mix of calls is not that of the screen. The call rests on the fitted dose curve; in most records, active means well fitted inhibition curve with a large enough effect; inconclusive means small, poorly fitted or top-dose-only effect, or effect the other way; inactive means flat fitted curve, though single readings scatter. Potencies beside an inconclusive call are fits to weak or partial responses and may not hold up.
On the % scale 0 is the no-effect control and ±100 the full control effect; potency means the concentration at half of the fitted maximal effect.

Assay: Nrf2 qHTS screen for inhibitors; further: nearly all actives have a fitted effect of over 60% in size
Settings: A549 ARE-Fluc reporter, luciferase luminescence, 18-24 h; activity change, negative = inhibition: at 46 µM (top of the series)
Summary of the method: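 Nrf2 activity is the BugLite luminescence, read 15 min after reagent at room temperature, following CellTiter-Fluor cytotoxicity readout (30 min, 37C). Compound titrations were applied for 18-24 h to 5000 A549 ARE_Fluc cells/well in 5% FBS OPTI-MEM.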
For CC(C)=CCCC1=CCC(/C(C)=N/NC(N)=O)CC1 (centres undefined), the Potency was inconclusive: 29.1 µM [activator, single point]. For CC(C)(C)C1CCC(C(=O)NCC(c2cccs2)N2CCOCC2)CC1 (centres undefined), the Potency was inconclusive: 18.4 µM [falling, single point]. In the case of O=C(Nc1ccc2ccccc2c1)c1ccccc1F, the Potency is reported as inconclusive: 11.6 µM [activator, partial curve]. In the case of Cc1ccc2c(c1)-c1nc(-c3ccc(Cl)cc3)cc(-c3coc4ccccc4c3=O)c1CO2, the “activity change, negative = inhibition” value is reported as inactive: 31%. In the case of Cc1ccc(S(=O)(=O)Nc2ccc(-n3c(C)nc4ccccc4c3=O)cc2)cc1, the Potency is reported as active: 18.4 µM. With CCOC(=O)c1c(C)[nH]c(C(=O)OCCOc2ccccc2C)c1C the Potency was inconclusive: 1.16 µM [activator, full curve]. For COc1cccc(CNC(=O)c2ccc(CSc3nc4ccncc4n3Cc3cccc(C)c3)cc2)c1, the Potency was inconclusive: 1.16 µM [falling, partial curve, poor fit]. In the case of COc1cccc(-n2nc(C#N)c(Cl)cc2=O)c1, the Potency is reported as inconclusive: 29.1 µM [falling, single point]. For Cc1cccn2c(=O)c3cc(C(=O)NCC4CCCO4)c(=N)n(CCc4ccccc4)c3nc12 (centres undefined), the Potency was inconclusive: 29.1 µM [activator, partial curve, poor fit]. For COCC(=O)Nc1ccc(S(=O)(=O)NCC2CCCO2)cc1 (centres undefined), the Potency was inconclusive: 13 µM [falling, partial curve, poor fit]. For Cc1ccc(Cl)cc1N1CCN(S(=O)(=O)c2ccc3[nH]c4c(c3c2)CCCCC4)CC1, the “activity change, negative = inhibition” value was inactive: 5.58%. In the case of CN(C)CCN(Cc1ccccc1)S(=O)(=O)c1ccc(-c2ccc(=O)[nH]n2)s1, the “activity change, negative = inhibition” value is reported as inactive: -7.12%. With COc1ccc(/C=C/C(=O)c2ccc(NC(=O)c3cccs3)cc2)cc1OC the “activity change, negative = inhibition” value was inactive: -17.1%. In the case of Cc1noc(C)c1COc1ccccc1C(=O)N(C)CC(=O)Nc1ccc(Cl)c(Cl)c1, the Potency is reported as inconclusive: 32.6 µM [falling, single point]. For COc1ccc(C(=O)C(OC(=O)c2ccccc2)c2ccccc2)cc1 (centres undefined), the Potency was inconclusive: 18.4 µM [activator, partial curve]. With Cn1c(C(=O)O)c(CC(=O)Nc2ccc3c(c2)OCCO3)c2ccccc21 the Potency was inconclusive: 5.8 µM [activator, full curve]. For CC(=O)NC1=C(Nc2ccc(N(C)C)cc2)C(=O)c2ccccc2C1=O, the Potency was inconclusive: 8.2 µM [activator, partial curve, poor fit]. With CC(C)(C)N1C(=O)[C@H]2[C@@H](c3ccc(Br)cc3)N3C(=O)N(c4cccc(Cl)c4)C(=O)[C@@]3(C)[C@H]2C1=O the Potency was inconclusive: 29.1 µM [falling, single point]. With Cc1ccc(C(=O)Nc2ccc(S(=O)(=O)N3CCOCC3)cc2)cc1C the Potency was inconclusive: 16.4 µM [falling, partial curve, poor fit]. In the case of Cc1nn2c(c1-c1ccccc1)N=C(c1ccco1)CC2c1ccccc1 (centres undefined), the Potency is reported as inconclusive: 1.3 µM [falling, full curve, poor fit]. For C1=C2C[N+]3(CCCC3)CC2Cc2ccc3ccccc3c21 (centres undefined), the Potency was active: 2.06 µM. In the case of O=C(Nc1ccc(NC(=O)c2ccco2)nc1)c1cccc(F)c1, the Potency is reported as inconclusive: 0.366 µM [activator, partial curve, poor fit]. With COc1cc(-c2nnc(SCCOc3ccc(Cl)cc3C)o2)cc(OC)c1OC the Potency was inconclusive: 29.1 µM [activator, single point]. With Cn1ccnc1SCC(=O)n1c2c(c3ccccc31)CCCC2 the “activity change, negative = inhibition” value was inactive: -7.48%. In the case of CC(C)[C@H](NS(=O)(=O)c1ccccc1)C(=O)OCC(=O)N1N=C(c2ccc(Cl)cc2)CC1c1ccco1 (some centres undefined), the Potency is reported as inconclusive: 25.9 µM [falling, partial curve, poor fit]. For CCOC(=O)c1c(NC(=O)CSc2cn(CCNC(=O)c3ccccc3F)c3ccccc23)sc2c1CCC2, the Potency was inconclusive: 14.6 µM [falling, partial curve, poor fit]. With O=C(Nc1ccc(F)c(F)c1)c1ccc2c(c1)OCO2 the Potency was inconclusive: 11.6 µM [activator, partial curve, poor fit]. With Nc1ccccc1C(=O)/C=C/c1ccc2c(c1)OCO2 the Potency was inconclusive: 23.1 µM [activator, partial curve]. In the case of COC(=O)c1cc(S(=O)(=O)NCC2CCN(Cc3ccc(F)cc3)CC2)cn1C, the Potency is reported as inconclusive: 18.4 µM [activator, partial curve, poor fit]. In the case of CCCN(CCC)CC(O)CN1C(=O)N(CN2C(=O)N(CC(O)CN(CCC)CCC)C(=O)C2(C)C)C(C)(C)C1=O (centres undefined), the Potency is reported as inconclusive: 25.9 µM [activator, partial curve, poor fit]. With Cc1[nH]n(-c2ccccc2)c(=O)c1C(=O)c1ccc(Cl)cc1 the Potency was active: 16.4 µM. In the case of Cc1ccc(Cl)c2c1N[C@@H](c1ccc(C(=O)O)cc1)[C@H]1CC=C[C@@H]21, the Potency is reported as inconclusive: 18.4 µM [falling, partial curve, poor fit]. In the case of Cc1ccc(-c2nn(C)c(=O)c3ccccc23)cc1S(=O)(=O)NCCN(C)C, the Potency is reported as inconclusive: 20.6 µM [falling, single point]. For CCS(=O)(=O)N1CCN(C(=O)c2ccco2)CC1, the “activity change, negative = inhibition” value was inactive: 4.74%. In the case of O=C(CSc1nc2ccccc2c(=O)n1-c1ccccc1)N/N=C/C=C/c1ccccc1[N+](=O)[O-], the Potency is reported as inconclusive: 20.6 µM [falling, single point]. In the case of COc1ccc(OC)c(C(=O)CSc2nnc(Cc3cccs3)n2CCc2ccccc2)c1, the Potency is reported as inconclusive: 20.6 µM [falling, single point]. For CC1(C)NC(=O)N(CCCCOc2ccc(Br)cc2Cl)C1=O, the Potency was inconclusive: 29.1 µM [falling, single point]. For CCc1nnc(NC(=O)CSc2nnc(-c3cc4ccccc4cc3O)n2CCOC)s1, the Potency was inconclusive: 8.2 µM [falling, partial curve, poor fit]. For Cc1cc(C(=O)CSc2nc(N)cc(=O)[nH]2)c(C)n1CCc1ccc(Cl)cc1, the Potency was inconclusive: 20.6 µM [falling, single point]. For O=C(CC1CCCCC1)NCc1ccccc1, the Potency was inconclusive: 9.2 µM [activator, partial curve]. With O=C(COC(=O)CNC(=O)c1ccc([N+](=O)[O-])o1)Nc1ncc(Cl)cc1Cl the “activity change, negative = inhibition” value was inactive: -8.36%. In the case of Cc1c(CC(=O)NCCc2ccccc2F)c(=O)oc2c(C)c3occ(C(C)(C)C)c3cc12, the “activity change, negative = inhibition” value is reported as inactive: 8.78%. With Cc1ccc(-c2nn(-c3ccccc3)cc2C(=O)Nc2ccc(C)c(S(=O)(=O)N3CCOCC3)c2)cc1 the “activity change, negative = inhibition” value was inactive: -1.42%. For CCOc1ccc(CCN2C(=S)N([C@@H](Cc3ccc(O)cc3)CN3CCCC3CN3C(=S)NC[C@@H]3Cc3ccc(O)cc3)C[C@@H]2CC(C)C)cc1 (some centres undefined), the Potency was active: 16.4 µM. In the case of COc1ccc(NC(=O)CSc2cn(CC(=O)N3CCOCC3)c3ccccc23)cc1OC, the “activity change, negative = inhibition” value is reported as inactive: -1.32%. For CCOC(=O)c1c(C)n(C)c2ccc(OC)c(NC(=O)CCN3CCC(Cc4ccccc4)CC3)c12, the “activity change, negative = inhibition” value was inactive: 13.6%. With Cc1ccc(NCCCn2ccc(NC(=O)OCc3ccccc3)nc2=O)cc1C the “activity change, negative = inhibition” value was inactive: 1.41%. In the case of CCN(CC)CCN1C(=O)/C(=C\c2ccc(Cl)c([N+](=O)[O-])c2)SC1=Nc1ccc(OC)cc1, the “activity change, negative = inhibition” value is reported as inactive: 3.19%. With CCc1sc(-c2cc3cccc(OC)c3oc2=O)nc1-c1cc(C)ccc1C the “activity change, negative = inhibition” value was inactive: -11.2%. In the case of Cc1nc(C)c(-c2csc(Nc3ccc(F)cc3)n2)s1, the Potency is reported as inconclusive: 5.17 µM [activator, single point]. For Cc1ccc(S(=O)(=O)N2CCN(c3ccnc(-c4cccs4)n3)CC2)cc1, the Potency was active: 14.6 µM. In the case of CCCCNC(=O)N(C)c1nc2ccccc2s1, the Potency is reported as inconclusive: 6.51 µM [activator, partial curve]. In the case of Cc1cccc(N2C(=O)CSC23C(=O)N(Cc2cccc(F)c2)c2ccccc23)c1 (centres undefined), the Potency is reported as inconclusive: 29.1 µM [falling, single point]. For CCCNS(=O)(=O)c1ccc(CCC(=O)Nc2cc(Cl)ccc2Oc2ccccc2)cc1, the Potency was active: 16.4 µM. In the case of Cc1ccc(-c2n[nH]c(=S)c3ccccc23)cc1S(=O)(=O)NCC1CCCO1 (centres undefined), the Potency is reported as inconclusive: 29.1 µM [falling, single point]. In the case of O=C(CSc1n[nH]c(=O)n1C1CC1)Nc1cc(Cl)ccc1Oc1ccccc1, the Potency is reported as active: 18.4 µM. In the case of CCOC(=O)c1c(C)n(-c2ccccc2)c2ccc(OC(=O)c3ccccc3)cc12, the “activity change, negative = inhibition” value is reported as inactive: 10.6%. With Cc1cccc(-c2noc(CN(C(=O)COc3ccc(C(C)C)cc3)C(C)C)n2)c1 the Potency was inconclusive: 29.1 µM [falling, single point]. In the case of O=C(CSc1nc(-c2ccco2)cc(C(F)(F)F)n1)N1CCc2ccccc2C1, the Potency is reported as inconclusive: 4.11 µM [activator, partial curve, poor fit]. With Cc1ccc(NC(=O)CC2C(=O)N(Cc3ccccc3)C(=S)N2NC(=O)c2ccccc2)c(C)c1 (centres undefined) the Potency was inconclusive: 25.9 µM [falling, single point]. For Cc1ccc(C)c(CSc2nc3ncccc3[nH]2)c1, the “activity change, negative = inhibition” value was inactive: -13.3%. In the case of CCc1cc2cc3c(cc2nc1SCC(=O)Nc1nccs1)OCO3, the Potency is reported as inconclusive: 4.11 µM [falling, partial curve, poor fit]. For C[C@H](CO)N1C[C@H](C)[C@@H](CN(C)C(=O)Nc2ccc(C(F)(F)F)cc2)Oc2ccc(NC(=O)C3CCCCC3)cc2C1=O, the Potency was inconclusive: 29.1 µM [falling, single point]. In the case of O=C(Cc1n[nH]c(=O)c2ccccc12)OCC(=O)N(Cc1ccccc1)Cc1ccccc1, the Potency is reported as inconclusive: 7.31 µM [falling, partial curve].
